The data set can be described thus: general procedure: Fmoc solid-phase peptide synthesis; Rink amide resin; HATU/DIEA. To be noted: whole synthesis, based on the resin loading, side-chain lactam ring, sequence written open.

Data on 5 substances can be found in patent US10011631B2 (The University of Hong Kong, priority 2015, dated 2018).

In turn, “Ala-Arg-Arg-Asp(salicylaldehyde ester)-Glu-Tyr-Leu-Lys(5-OH)-Ala-Ile-Gln” returned an isolated yield of 35%.

Substance “Asp(salicylaldehyde ester)Ala-Ala-Ala-Lys(5-OR)” came in with an isolated yield of 30%.

The substance “Asp(salicylaldehyde ester)Ala-Ala-Ala-Lys(Ser)” gave an isolated yield of 42%.

As for “Gln-Ser-Gln-Gln-Thr-Phe-Asp(salicylaldehyde ester)-Asn-Leu-His-Arg-Leu-Leu-Lys(Ser)-Ala-Ala-Ala-Lys(Ser)-Gln-Asn”, the isolated yield amounted to 40%.

With “Glu-Asn-Pro-Glu-Asp(salicylaldehyde ester)-Ile-Leu-Asp-Lys(Ser)-His-Val-Gln-Arg-Val-Leu”, the isolated yield is listed as 45%.
